PubChem BioAssay AID623959 (National Center for Advancing Translational Sciences (NCATS), 2012)
In all, about 1,400 compounds went through this assay and fewer than 10 were called active. Not shown: some 8% with an inconclusive outcome. The call rests on the fitted dose curve; in most records, active means well fitted curve in the direction sought with a large enough effect; inconclusive means small, poorly fitted or top-dose-only effect, or another doubt; inactive means no such curve, though single readings can be large or run the other way. The list shows a part of the results.

Protein sequences, listed by entry. Tags and fused reporters are not part of them.
UniProt Q8NER1, whole entry, looked up: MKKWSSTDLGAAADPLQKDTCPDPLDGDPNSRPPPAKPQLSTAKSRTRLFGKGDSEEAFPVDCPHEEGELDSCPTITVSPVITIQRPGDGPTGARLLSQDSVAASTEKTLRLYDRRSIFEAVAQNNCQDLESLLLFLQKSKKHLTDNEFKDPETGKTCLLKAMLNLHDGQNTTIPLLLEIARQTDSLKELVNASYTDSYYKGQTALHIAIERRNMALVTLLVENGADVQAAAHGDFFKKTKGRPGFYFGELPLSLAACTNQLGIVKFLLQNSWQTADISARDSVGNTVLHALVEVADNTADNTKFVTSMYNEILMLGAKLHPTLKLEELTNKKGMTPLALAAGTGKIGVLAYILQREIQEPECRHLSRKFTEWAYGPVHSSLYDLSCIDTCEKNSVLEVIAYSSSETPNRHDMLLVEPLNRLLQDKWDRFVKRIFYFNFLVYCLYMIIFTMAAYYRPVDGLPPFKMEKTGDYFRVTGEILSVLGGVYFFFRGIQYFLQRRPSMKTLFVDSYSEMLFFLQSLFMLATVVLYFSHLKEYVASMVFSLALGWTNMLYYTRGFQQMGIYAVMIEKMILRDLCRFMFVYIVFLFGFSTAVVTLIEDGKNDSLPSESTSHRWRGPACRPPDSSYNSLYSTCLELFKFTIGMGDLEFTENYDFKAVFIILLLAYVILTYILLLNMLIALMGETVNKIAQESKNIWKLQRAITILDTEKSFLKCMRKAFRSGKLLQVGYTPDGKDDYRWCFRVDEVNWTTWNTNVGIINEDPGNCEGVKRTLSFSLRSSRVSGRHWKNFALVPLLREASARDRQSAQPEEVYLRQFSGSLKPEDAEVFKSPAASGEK

target: Transient receptor potential cation channel subfamily V member 1 (Homo sapiens) (UniProt Q8NER1); test: qHTS Assay for Compounds that Act as Potentiators of the Vanilloid Receptor 1: Hit Validation; settings: TRPV1-expressing cells, Fluo-8 calcium influx, capsaicin EC20; series mostly up to 42.1 µM; activity change, positive = potentiation: at the top concentration; further: % of control where 0% means no effect
In short: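 Calcium influx via Fluo-8 fluorescence (480/520 nm) on FDSS: 10 s baseline, 3 min compound read, 2 min read after EC20 capsaicin. TRPV1-expressing cells plated 2000/well, grown overnight at 35.5 °C.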

Activity change, positive = potentiation, inactive:
CCOCc1c(C(=O)Nc2ccc(OC)nc2)oc2ccccc12 -32.4%, O=C1CC(c2ccccc2)CC(O)=C1C=NCCc1ccccc1 (configuration not stated) -7.4%, CS(=O)(=O)c1ccc(C(=O)Nc2ccc(N3CCCCC3)cc2)c(Cl)c1 -30%, COc1ccc(C2CC(C(F)(F)F)n3nc(C(=O)NCc4c(C)nn(C)c4C)c(Cl)c3N2)cc1 (configuration not stated) -5.63%, N#C/C(=C\c1ccccc1)C(=O)OCC(=O)N1CCCC1 6.47%, Cc1ccccc1NC(=O)COc1cccc2c1CCNC2=O 4.66%, O=[N+]([O-])C1C(c2ccccc2)=NOC1c1ccccc1O (configuration not stated) -9.52%, COc1ccc2c(c1)cc(C(=O)N[C@H](C(=O)N1CCC[C@H]1C(=O)O)C(C)C)n2C -6.61%, O=C(NCCc1ccc(Cl)cc1)c1cc2ccccn2n1 -36%, COc1ccc(S(=O)(=O)N2CCOC23CCN(S(=O)(=O)c2ccc(C)cc2)CC3)cc1 4.77%, COC(CNC(=O)c1ccc2c(c1)ncn2-c1ccc(F)cc1F)OC -5.19%, COc1cc(CNc2ccc3[nH]c(=O)[nH]c3c2)ccc1OCc1c(F)cccc1Cl -15.4%, COC(=O)[C@@]12CCCCN1[C@H](c1ccc(-c3ccc(C(C)=O)cc3)cc1)[C@H]1C(=O)N(C)C(=O)[C@H]12 -1.08%, Nc1c(Cl)ncnc1NCc1ccccc1 9.46%, O=C(Nc1nnc2n1CCS2)c1ccc(Br)o1 -4.08%, CN(C)C(=O)NCc1ccc(S(N)(=O)=O)cc1 -3.33%, O=C(Nc1ccc(N2CCCC2)cc1)c1cccc(Cl)c1Cl -24.2%, C=CCOc1c(Br)cc(CNc2ccc(NC(=O)C(C)C)cc2)cc1OCC -15%, CCC(Oc1ccccc1)C(=O)Nc1nnc(C(F)(F)F)s1 (configuration not stated) -7.55%, CN(c1ccccc1)S(=O)(=O)c1cccc(NC(=O)Cn2cnc3ccccc3c2=O)c1 -5.16%, CCN1CCN(CCCN(Cc2ccco2)C(=S)Nc2ccccc2Cl)CC1 -6.3%, O=c1c2ccccc2c(=O)n2n1Cc1ccccc1C2 -4.89%, CC(=O)O/N=C1\C(=O)N(Cc2ccc(C)cc2)c2ccccc21 -10%, CC(C)OCCCNC(=O)C(NC(=O)c1ccc(Cl)cc1)C(C)C (configuration not stated) -22.8%, O=c1c(-c2nnc(SCc3ccc(Cl)cc3)o2)cccn1Cc1ccccc1 10.5%, Cc1ccc(C(=O)Nc2ccc3cn[nH]c3c2)cc1S(=O)(=O)N1CCOCC1 -28.3%, CC(C)(C)OC(=O)CNC(=O)c1[nH]cnc1C(=O)N[C@@H](Cc1ccccc1)C(=O)OC(C)(C)C -38.9%, CC(C)NC(=O)CC1OC(=O)c2ccccc21 (configuration not stated) 5.25%, CCCCc1ccc(NC(=S)N2CCC(O)CC2)cc1 -38%, CC(C)c1ccc(OCC(=O)Nc2ccncc2)cc1 -38.4%, CCOC(=O)c1c(C)c(C(=O)NCC2CCCO2)c(C)n1C (configuration not stated) -7.81%, CCC(=O)N1CCN(c2nc(-c3ccccc3)c3c(c2C#N)CCCC3)CC1 -36%, CCNC(=O)NC(=O)C(C)OC(=O)c1cccn1C (configuration not stated) -7.78%, CC(C)C[C@H](NC(=O)c1[nH]cnc1C(=O)N[C@@H](Cc1ccccc1)C(=O)OC(C)(C)C)C(=O)OC(C)(C)C -33.7%, COc1ccc(CC(=O)Nc2cccc(SC)c2)cc1OC -39.2%, COc1ccc(OC)c(N2C(=O)CC(Cc3cc(C)cc(C)c3)C2=O)c1 (configuration not stated) 4.55%, CCOC(=O)[C@H]1[C@H]2COc3ccc(Cl)cc3[C@@H]2N2C(=O)c3ccc(Cl)cc3NC(=O)[C@@]12C 3%, O=C(/C=C/c1ccc(Cl)c([N+](=O)[O-])c1)c1ccc(O)cc1 -37.7%, Cc1c(OCC(=O)N2CCC(C(=O)O)CC2)ccc2c1oc(=O)c1ccccc12 1.98%, COc1ccc2nc(-c3ccccc3)[nH]c2c1 -11.1%, C#CCOCCOCCOCCNc1nc(N2CCN(C(=O)CCCCCCCCCCNC(=O)[C@H](CCCCN)n3cc(CCCC(=O)O)nn3)CC2)nc(N2CCN(C(=O)CCCCCCCCCCNC(=O)[C@H](CCCCN)n3cc(CCCC(=O)O)nn3)CC2)n1 -9.37%, Cc1cc(=O)n2c(n1)SCOC2 -5.78%, Fc1ccc(CN2CCN(c3ncnc4scc(-c5ccc(F)cc5)c34)CC2)cc1 -22%, O=C(O)C1CC(=O)N(c2ccc(F)cc2)C1 (configuration not stated) -8.98%, O=C(CNC(=O)c1ccc2c(c1)OCO2)N/N=C(Br)/C=C/c1ccccc1 -9.13%, COc1cc(Cl)c(C)cc1NC(=O)Cc1ccc(OC)c(OC)c1 -35.2%, CC(C)(C)c1ccc(C(=O)Nc2ccc3c(c2)C(=O)NC3=O)cc1 -38.2%, Cc1[nH]c2ccccc2c1-c1nc2ccccc2[nH]1 -11.8%, COc1ccc(CNC(=O)C2(CC3CC(c4ccccc4)=NO3)CCN(C(=O)C3CCCC3)CC2)cc1 (configuration not stated) -5.73%, Cc1ccc(NC(=O)COC(=O)c2oc3ccccc3c2C)cc1S(=O)(=O)N1CCOCC1 -2.71%, O=C(N/N=C/C=C/c1ccccc1)c1ccccn1 -0.876%, COCCNC(=O)CSc1nc2ccccc2c(=O)n1CC1CCCO1 (configuration not stated) 0.611%, O=C(Nc1cccc(-c2cn3ccccc3n2)c1)C1CC1 -6.54%, c1ccc(-c2csc(N3CCN(c4ccccn4)CC3)n2)cc1 -27.3%, CCc1ccc(NC(=O)Nc2ccc3c(c2)N(C)C(=O)CS3)cc1 -38.6%, COc1cc(C(=O)N(CCN(C)C)CC2CCCN(Cc3ccccc3F)C2)ccc1C (configuration not stated) -2.16%, N=c1c(S(=O)(=O)c2ccc(Br)cc2)cc2c(=O)n3ccccc3nc2n1C1CCCC1 -8.18%, O=C(Cc1ccccc1)NC(=S)Nc1ccc(OC(F)F)cc1 -38.1%, CCCCCC1CCC(C(=O)N2CCOCC2)CC1 (configuration not stated) -36.1%, Oc1ccccc1N=Cc1c(O)ccc2ccccc12 -39.7%, Cc1ccc(C)c(S(=O)(=O)N2CCN(C(=O)c3ccncc3)CC2)c1 -38.2%, Cc1ccc(S(=O)(=O)N(C)C)cc1NC(=O)c1ccc2ccccc2n1 2.32%, CCOC(=O)C1CCN(S(=O)(=O)c2ccc(CNC(=O)c3ccccc3)s2)CC1 -4.78%, O=C(Nc1ccc(Cl)cc1)Nc1cccc2nsnc12 -37%, COc1ccc(CC(=O)Nc2cccc3ccccc23)cc1OC -26.5%, COc1cccc(-c2csc(N3CCN(CC(=O)NNC(=O)c4ccco4)CC3)n2)c1 4.79%, CC(C)(C)c1ccc(/C=N/OCC(=O)NCc2ccc(F)cc2)cc1 -39.6%
